Measured values as given in publication PMC4509546, “Structural Characterization of the Chaetomium thermophilum TREX-2 Complex and its Interaction with the mRNA Nuclear Export Factor Mex67:Mtr2” (Structure(London, England:1993), 2015).
Results are given in words; binding and its absence hold for the method and conditions named. Binding calls can cover weak binding; strength is not graded here. For some of these results: Binding seen in cells or lysates may run through a third protein.

Amino acid sequences for entries named in this document (tags omitted). A change or cut given only in a name is not applied to a line headed by its entry.
UniProt G0SGL4: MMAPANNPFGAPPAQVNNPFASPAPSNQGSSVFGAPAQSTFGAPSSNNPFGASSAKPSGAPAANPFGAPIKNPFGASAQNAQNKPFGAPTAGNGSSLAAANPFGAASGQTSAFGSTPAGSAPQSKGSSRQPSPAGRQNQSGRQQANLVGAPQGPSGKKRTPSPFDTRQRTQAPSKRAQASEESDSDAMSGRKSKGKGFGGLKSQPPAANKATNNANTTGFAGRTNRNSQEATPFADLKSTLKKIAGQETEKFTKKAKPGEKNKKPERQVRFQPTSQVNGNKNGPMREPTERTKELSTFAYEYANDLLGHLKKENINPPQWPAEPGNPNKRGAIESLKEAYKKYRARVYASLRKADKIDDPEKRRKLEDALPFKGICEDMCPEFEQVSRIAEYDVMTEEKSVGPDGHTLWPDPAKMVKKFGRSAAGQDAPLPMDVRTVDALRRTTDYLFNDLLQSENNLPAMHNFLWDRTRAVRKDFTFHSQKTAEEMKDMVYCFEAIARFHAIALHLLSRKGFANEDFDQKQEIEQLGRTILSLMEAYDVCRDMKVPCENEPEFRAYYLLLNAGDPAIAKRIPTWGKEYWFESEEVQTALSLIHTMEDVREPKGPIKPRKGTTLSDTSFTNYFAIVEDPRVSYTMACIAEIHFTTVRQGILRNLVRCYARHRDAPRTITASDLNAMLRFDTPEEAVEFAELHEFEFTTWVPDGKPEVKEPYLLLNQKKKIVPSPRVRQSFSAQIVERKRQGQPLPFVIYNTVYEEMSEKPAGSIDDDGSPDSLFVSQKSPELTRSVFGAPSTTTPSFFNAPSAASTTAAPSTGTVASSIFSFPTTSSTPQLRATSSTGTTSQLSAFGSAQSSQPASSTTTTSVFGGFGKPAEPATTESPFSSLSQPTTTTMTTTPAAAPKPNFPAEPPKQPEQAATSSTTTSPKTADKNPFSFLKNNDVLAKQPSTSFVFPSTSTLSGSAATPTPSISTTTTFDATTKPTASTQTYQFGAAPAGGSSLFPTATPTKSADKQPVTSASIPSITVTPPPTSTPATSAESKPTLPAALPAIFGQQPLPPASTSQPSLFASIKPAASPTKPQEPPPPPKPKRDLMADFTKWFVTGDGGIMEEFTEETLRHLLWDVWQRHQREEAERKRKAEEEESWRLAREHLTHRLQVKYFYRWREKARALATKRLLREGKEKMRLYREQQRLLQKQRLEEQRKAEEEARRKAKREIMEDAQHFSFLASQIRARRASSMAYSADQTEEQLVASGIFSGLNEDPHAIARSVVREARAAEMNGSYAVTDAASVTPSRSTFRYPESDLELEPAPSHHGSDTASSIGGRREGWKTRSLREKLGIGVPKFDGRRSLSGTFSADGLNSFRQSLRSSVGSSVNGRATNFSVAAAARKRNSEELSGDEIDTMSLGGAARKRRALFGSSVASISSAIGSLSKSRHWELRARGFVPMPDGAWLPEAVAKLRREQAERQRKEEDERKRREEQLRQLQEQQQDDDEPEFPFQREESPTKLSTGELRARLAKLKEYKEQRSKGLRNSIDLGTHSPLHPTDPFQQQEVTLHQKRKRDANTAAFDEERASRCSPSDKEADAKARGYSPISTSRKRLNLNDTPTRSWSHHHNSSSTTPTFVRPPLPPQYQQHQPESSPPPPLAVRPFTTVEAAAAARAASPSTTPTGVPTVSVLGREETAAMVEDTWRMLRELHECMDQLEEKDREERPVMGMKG

Key:
[1] = biological target: ctSac3^CID (C. thermophilum Sac3 CID region, residues 1086-1170) (Chaetomium thermophilum) (UniProt G0SGL4); test: pull-down + SEC; GST-TEV-ctSac3 CID co-expressed with Sus1 and Cdc31 in E. coli; GSH purification, TEV cleavage, size-exclusion chromatography; fractions on SDS-PAGE
[2] = biological target: ctSac3^CID (C. thermophilum Sac3 CID region, residues 1086-1170) (Chaetomium thermophilum) (UniProt G0SGL4); test: crystal structure; ctSac3(1086-1170):ctSus1:ctCdc31, 3.3 Å; 20% PEG 3350, 0.1 M Na succinate, sitting drop; both purified

binding [1]	binding [2]	Substance
binds	binds	ctCdc31 (XP_006694724), bacterially expressed (from UniProt G0SAR7)
binds	binds	ctSus1 (CTHT_0027270), bacterially expressed (from UniProt G0S6Y1)
